# No constants are given. Whether binding was seen depends on the method and setting. Some entries that bind do so weakly or less than the wild type.
# The chains behind the UniProt entries cited, without tags or fusion partners. Residues count along the entry.
# UniProt P08238: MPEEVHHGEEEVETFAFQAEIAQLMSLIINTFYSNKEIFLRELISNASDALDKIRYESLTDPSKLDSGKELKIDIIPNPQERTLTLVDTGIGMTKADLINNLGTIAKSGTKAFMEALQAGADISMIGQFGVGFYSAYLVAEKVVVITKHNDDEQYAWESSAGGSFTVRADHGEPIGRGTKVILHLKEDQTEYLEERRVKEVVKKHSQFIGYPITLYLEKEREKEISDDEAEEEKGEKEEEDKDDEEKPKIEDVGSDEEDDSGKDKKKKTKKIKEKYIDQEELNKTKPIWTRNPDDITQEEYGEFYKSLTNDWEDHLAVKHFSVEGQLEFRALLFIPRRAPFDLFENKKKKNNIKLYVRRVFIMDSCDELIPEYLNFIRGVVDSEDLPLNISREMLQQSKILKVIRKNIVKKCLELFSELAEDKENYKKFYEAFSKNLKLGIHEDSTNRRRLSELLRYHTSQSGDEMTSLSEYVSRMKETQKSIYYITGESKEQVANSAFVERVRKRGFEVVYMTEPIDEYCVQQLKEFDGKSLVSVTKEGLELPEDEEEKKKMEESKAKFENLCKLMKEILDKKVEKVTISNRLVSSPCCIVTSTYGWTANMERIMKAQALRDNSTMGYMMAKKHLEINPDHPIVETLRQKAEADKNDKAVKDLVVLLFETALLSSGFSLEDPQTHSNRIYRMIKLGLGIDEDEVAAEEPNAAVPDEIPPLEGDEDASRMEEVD
# UniProt P02748, residues 22-559: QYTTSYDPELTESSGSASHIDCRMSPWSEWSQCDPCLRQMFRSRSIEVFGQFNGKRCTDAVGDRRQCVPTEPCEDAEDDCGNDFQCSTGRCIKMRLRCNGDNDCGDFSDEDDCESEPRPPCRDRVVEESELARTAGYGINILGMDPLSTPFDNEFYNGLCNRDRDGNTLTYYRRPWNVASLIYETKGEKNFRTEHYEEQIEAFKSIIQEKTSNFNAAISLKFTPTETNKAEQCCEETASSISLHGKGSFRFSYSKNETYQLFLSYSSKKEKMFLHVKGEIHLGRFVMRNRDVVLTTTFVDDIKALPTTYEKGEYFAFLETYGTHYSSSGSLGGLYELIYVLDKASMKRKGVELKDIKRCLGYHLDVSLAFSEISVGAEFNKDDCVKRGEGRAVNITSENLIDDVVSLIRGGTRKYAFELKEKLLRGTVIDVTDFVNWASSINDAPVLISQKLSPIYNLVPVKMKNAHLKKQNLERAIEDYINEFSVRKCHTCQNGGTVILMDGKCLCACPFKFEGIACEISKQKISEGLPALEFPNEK
# UniProt P38646, residues 47-679: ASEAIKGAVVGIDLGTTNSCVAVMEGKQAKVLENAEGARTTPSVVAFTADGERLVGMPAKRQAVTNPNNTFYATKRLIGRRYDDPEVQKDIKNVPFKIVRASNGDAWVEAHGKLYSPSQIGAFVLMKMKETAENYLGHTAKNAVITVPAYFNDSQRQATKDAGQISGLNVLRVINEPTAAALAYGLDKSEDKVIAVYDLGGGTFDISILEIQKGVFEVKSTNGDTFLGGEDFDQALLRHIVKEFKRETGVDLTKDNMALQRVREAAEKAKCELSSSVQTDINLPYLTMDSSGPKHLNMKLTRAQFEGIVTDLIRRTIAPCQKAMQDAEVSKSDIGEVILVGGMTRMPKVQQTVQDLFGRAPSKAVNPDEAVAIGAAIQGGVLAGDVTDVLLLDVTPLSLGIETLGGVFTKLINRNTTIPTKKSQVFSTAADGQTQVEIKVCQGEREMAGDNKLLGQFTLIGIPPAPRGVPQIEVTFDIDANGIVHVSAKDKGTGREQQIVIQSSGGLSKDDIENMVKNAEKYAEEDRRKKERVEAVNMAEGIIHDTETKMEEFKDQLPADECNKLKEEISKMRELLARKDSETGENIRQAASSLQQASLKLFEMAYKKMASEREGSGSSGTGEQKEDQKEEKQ
# Tests used:
# [1] = target: recombinant human Hsp90β (human) (UniProt P08238); test: ELISA; wells coated with recombinant Hsp90β or BSA; recombinant His-tagged mortalin added 60 min at 37 °C; detection with anti-His; binding to BSA subtracted; both purified
# [2] = target: purified human C9 (human) (UniProt P02748); test: ELISA; competitive ELISA: wells coated with C9 (100 ng/well) overnight; mortalin pre-mixed with increasing amounts of Hsp90β or BSA added 1 h at 37 °C; bound mortalin detected; both purified
substance,measurement,setting,value
recombinant human mortalin with a 6xhis-tag (from UniProt P38646 47-679),binding,[1],binds
same,binding,[2],binds

# — article PMC5833442
